What all share (assay): affinity purification with mass spectrometry; tandem affinity purification from 293T cells stably expressing the SFB-tagged bait; lysis in NETN300 (300 mM NaCl); streptavidin agarose, elution with 2 mM biotin, then S beads; SDS-PAGE, silver staining and mass spectrometry
Assay [1] addresses T1, SFB-tagged ZNF644 (bait of the reciprocal affinity purification) (human) (UniProt Q9H582).
T1 sequence: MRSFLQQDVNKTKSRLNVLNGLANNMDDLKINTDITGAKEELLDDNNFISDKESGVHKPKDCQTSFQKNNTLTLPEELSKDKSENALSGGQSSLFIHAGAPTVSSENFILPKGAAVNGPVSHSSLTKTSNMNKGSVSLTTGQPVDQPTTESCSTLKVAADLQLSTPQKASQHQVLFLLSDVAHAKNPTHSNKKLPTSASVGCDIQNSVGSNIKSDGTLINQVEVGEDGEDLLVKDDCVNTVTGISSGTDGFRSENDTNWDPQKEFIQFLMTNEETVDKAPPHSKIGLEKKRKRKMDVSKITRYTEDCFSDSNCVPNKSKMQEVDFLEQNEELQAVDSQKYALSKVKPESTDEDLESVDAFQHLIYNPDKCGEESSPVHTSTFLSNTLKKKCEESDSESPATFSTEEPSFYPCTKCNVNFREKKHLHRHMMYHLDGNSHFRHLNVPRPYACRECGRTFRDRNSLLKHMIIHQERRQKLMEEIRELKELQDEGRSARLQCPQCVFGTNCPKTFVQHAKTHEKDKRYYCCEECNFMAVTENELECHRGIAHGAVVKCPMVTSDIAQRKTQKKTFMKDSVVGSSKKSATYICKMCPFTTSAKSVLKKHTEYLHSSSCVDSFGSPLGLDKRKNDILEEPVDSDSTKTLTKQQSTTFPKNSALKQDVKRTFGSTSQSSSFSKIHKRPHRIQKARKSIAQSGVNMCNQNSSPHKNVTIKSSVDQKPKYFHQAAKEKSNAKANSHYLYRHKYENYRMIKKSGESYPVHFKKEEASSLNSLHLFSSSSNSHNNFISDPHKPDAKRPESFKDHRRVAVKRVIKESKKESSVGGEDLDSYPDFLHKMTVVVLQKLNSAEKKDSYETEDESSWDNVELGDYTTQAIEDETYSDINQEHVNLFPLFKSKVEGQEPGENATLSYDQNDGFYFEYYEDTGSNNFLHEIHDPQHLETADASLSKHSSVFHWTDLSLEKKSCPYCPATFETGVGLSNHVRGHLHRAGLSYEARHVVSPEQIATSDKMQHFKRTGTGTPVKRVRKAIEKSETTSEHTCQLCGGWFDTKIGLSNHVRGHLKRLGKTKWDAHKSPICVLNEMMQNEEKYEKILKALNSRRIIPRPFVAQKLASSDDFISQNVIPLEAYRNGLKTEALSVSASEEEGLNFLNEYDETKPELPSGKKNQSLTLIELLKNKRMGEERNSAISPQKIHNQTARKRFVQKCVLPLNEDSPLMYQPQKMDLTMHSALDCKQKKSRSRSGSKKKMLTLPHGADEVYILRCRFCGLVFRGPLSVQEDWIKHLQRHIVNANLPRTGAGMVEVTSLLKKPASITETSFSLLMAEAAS

The target of assay [2] is SFB-tagged G9a (wild type) (UniProt Q96KQ7).
Assay [3] deals with T2, SFB-tagged G9a (wild type), Q96KQ7.
T2 chain: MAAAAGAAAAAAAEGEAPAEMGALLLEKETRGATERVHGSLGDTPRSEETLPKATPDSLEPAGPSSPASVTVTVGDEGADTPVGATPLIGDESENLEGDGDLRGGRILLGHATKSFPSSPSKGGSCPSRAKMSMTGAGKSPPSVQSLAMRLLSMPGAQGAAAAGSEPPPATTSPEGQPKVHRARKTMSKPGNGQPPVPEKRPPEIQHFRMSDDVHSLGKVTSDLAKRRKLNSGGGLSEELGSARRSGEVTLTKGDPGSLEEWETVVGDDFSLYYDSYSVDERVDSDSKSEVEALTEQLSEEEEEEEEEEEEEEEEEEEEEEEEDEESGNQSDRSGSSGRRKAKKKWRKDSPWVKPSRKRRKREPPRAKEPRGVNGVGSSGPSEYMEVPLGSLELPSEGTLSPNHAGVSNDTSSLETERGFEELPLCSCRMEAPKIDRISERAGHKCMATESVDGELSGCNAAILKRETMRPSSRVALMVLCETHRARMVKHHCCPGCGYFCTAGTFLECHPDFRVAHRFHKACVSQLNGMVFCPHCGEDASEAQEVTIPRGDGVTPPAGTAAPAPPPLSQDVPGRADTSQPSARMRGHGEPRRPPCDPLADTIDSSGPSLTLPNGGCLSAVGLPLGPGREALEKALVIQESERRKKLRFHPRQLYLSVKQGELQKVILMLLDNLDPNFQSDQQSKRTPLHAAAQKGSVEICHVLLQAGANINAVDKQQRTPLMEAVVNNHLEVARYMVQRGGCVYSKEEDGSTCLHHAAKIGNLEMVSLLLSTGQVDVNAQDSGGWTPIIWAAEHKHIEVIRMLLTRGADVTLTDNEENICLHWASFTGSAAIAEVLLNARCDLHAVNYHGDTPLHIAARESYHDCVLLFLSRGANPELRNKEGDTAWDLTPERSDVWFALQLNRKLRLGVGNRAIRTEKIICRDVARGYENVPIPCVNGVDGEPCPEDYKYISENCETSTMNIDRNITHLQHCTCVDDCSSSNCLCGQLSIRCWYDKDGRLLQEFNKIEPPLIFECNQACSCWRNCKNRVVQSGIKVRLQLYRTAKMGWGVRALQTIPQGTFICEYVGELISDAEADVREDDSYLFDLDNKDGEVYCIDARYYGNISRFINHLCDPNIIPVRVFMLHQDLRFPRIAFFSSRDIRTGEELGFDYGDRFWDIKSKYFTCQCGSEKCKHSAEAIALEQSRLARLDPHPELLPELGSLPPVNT
The following applies: remark: other sources report otherwise.

Results on three molecules are retold here after article PMC4365668, “The zinc finger proteins ZNF644 and WIZ regulate the G9a/GLP complex for gene repression”.

These are yes or no findings as the source states them, for the method shown. In cells and extracts the contact can be indirect. Here binding means that the protein was enriched with, or labelled near, the bait; the list need not be complete. For part of these data: Sequences can lack the tags named with a protein.

On to “G9a (endogenous) (from UniProt Q96KQ7 1-1210) (enzyme)”, for which the binding result in assay [1] is on record as “binds”.

B1: ZNF644 (endogenous) (protein, UniProt Q9H582 1-1327)
chain: MRSFLQQDVNKTKSRLNVLNGLANNMDDLKINTDITGAKEELLDDNNFISDKESGVHKPKDCQTSFQKNNTLTLPEELSKDKSENALSGGQSSLFIHAGAPTVSSENFILPKGAAVNGPVSHSSLTKTSNMNKGSVSLTTGQPVDQPTTESCSTLKVAADLQLSTPQKASQHQVLFLLSDVAHAKNPTHSNKKLPTSASVGCDIQNSVGSNIKSDGTLINQVEVGEDGEDLLVKDDCVNTVTGISSGTDGFRSENDTNWDPQKEFIQFLMTNEETVDKAPPHSKIGLEKKRKRKMDVSKITRYTEDCFSDSNCVPNKSKMQEVDFLEQNEELQAVDSQKYALSKVKPESTDEDLESVDAFQHLIYNPDKCGEESSPVHTSTFLSNTLKKKCEESDSESPATFSTEEPSFYPCTKCNVNFREKKHLHRHMMYHLDGNSHFRHLNVPRPYACRECGRTFRDRNSLLKHMIIHQERRQKLMEEIRELKELQDEGRSARLQCPQCVFGTNCPKTFVQHAKTHEKDKRYYCCEECNFMAVTENELECHRGIAHGAVVKCPMVTSDIAQRKTQKKTFMKDSVVGSSKKSATYICKMCPFTTSAKSVLKKHTEYLHSSSCVDSFGSPLGLDKRKNDILEEPVDSDSTKTLTKQQSTTFPKNSALKQDVKRTFGSTSQSSSFSKIHKRPHRIQKARKSIAQSGVNMCNQNSSPHKNVTIKSSVDQKPKYFHQAAKEKSNAKANSHYLYRHKYENYRMIKKSGESYPVHFKKEEASSLNSLHLFSSSSNSHNNFISDPHKPDAKRPESFKDHRRVAVKRVIKESKKESSVGGEDLDSYPDFLHKMTVVVLQKLNSAEKKDSYETEDESSWDNVELGDYTTQAIEDETYSDINQEHVNLFPLFKSKVEGQEPGENATLSYDQNDGFYFEYYEDTGSNNFLHEIHDPQHLETADASLSKHSSVFHWTDLSLEKKSCPYCPATFETGVGLSNHVRGHLHRAGLSYEARHVVSPEQIATSDKMQHFKRTGTGTPVKRVRKAIEKSETTSEHTCQLCGGWFDTKIGLSNHVRGHLKRLGKTKWDAHKSPICVLNEMMQNEEKYEKILKALNSRRIIPRPFVAQKLASSDDFISQNVIPLEAYRNGLKTEALSVSASEEEGLNFLNEYDETKPELPSGKKNQSLTLIELLKNKRMGEERNSAISPQKIHNQTARKRFVQKCVLPLNEDSPLMYQPQKMDLTMHSALDCKQKKSRSRSGSKKKMLTLPHGADEVYILRCRFCGLVFRGPLSVQEDWIKHLQRHIVNANLPRTGAGMVEVTSLLKKPASITETSFSLLMAEAAS
Regarding B1, the binding result in assay [2] was “binds”.

B2: GLP (endogenous), Q9H9B1 1-1298 (enzyme)
chain: MAAADAEAVPARGEPQQDCCVKTELLGEETPMAADEGSAEKQAGEAHMAADGETNGSCENSDASSHANAAKHTQDSARVNPQDGTNTLTRIAENGVSERDSEAAKQNHVTADDFVQTSVIGSNGYILNKPALQAQPLRTTSTLASSLPGHAAKTLPGGAGKGRTPSAFPQTPAAPPATLGEGSADTEDRKLPAPGADVKVHRARKTMPKSVVGLHAASKDPREVREARDHKEPKEEINKNISDFGRQQLLPPFPSLHQSLPQNQCYMATTKSQTACLPFVLAAAVSRKKKRRMGTYSLVPKKKTKVLKQRTVIEMFKSITHSTVGSKGEKDLGASSLHVNGESLEMDSDEDDSEELEEDDGHGAEQAAAFPTEDSRTSKESMSEADRAQKMDGESEEEQESVDTGEEEEGGDESDLSSESSIKKKFLKRKGKTDSPWIKPARKRRRRSRKKPSGALGSESYKSSAGSAEQTAPGDSTGYMEVSLDSLDLRVKGILSSQAEGLANGPDVLETDGLQEVPLCSCRMETPKSREITTLANNQCMATESVDHELGRCTNSVVKYELMRPSNKAPLLVLCEDHRGRMVKHQCCPGCGYFCTAGNFMECQPESSISHRFHKDCASRVNNASYCPHCGEESSKAKEVTIAKADTTSTVTPVPGQEKGSALEGRADTTTGSAAGPPLSEDDKLQGAASHVPEGFDPTGPAGLGRPTPGLSQGPGKETLESALIALDSEKPKKLRFHPKQLYFSARQGELQKVLLMLVDGIDPNFKMEHQNKRSPLHAAAEAGHVDICHMLVQAGANIDTCSEDQRTPLMEAAENNHLEAVKYLIKAGALVDPKDAEGSTCLHLAAKKGHYEVVQYLLSNGQMDVNCQDDGGWTPMIWATEYKHVDLVKLLLSKGSDINIRDNEENICLHWAAFSGCVDIAEILLAAKCDLHAVNIHGDSPLHIAARENRYDCVVLFLSRDSDVTLKNKEGETPLQCASLNSQVWSALQMSKALQDSAPDRPSPVERIVSRDIARGYERIPIPCVNAVDSEPCPSNYKYVSQNCVTSPMNIDRNITHLQYCVCIDDCSSSNCMCGQLSMRCWYDKDGRLLPEFNMAEPPLIFECNHACSCWRNCRNRVVQNGLRARLQLYRTRDMGWGVRSLQDIPPGTFVCEYVGELISDSEADVREEDSYLFDLDNKDGEVYCIDARFYGNVSRFINHHCEPNLVPVRVFMAHQDLRFPRIAFFSTRLIEAGEQLGFDYGERFWDIKGKLFSCRCGSPKCRHSSAALAQRQASAAQEAQEDGLPDTSSAAAADPL
In the case of B2, in assay [3], the binding entry was “binds”.
